This is one part of the list. Most values lie at the level of the controls, where differences are scatter.
Compound: CN[C@@H]1C[C@H]2O[C@@](C)([C@@H]1OC)n1c3ccccc3c3c4c(c5c6ccccc6n2c5c31)C(=O)NC4 [staurosporine]
Test: log2 fold change of tryptic peptide abundance, ligand vs vehicle (limited proteolysis) (log2 ratio); higher = more trypsin-susceptible (destabilized)
Settings: ligand concentration: 20 uM; sample: K562 cleared lysate; digestion: 4 min, 22 C (HT-PELSA RT4min, Orbitrap Astral)

Amino acid sequences for entries named in this document (tags omitted). A change or cut given only in a name is not applied to a line headed by its entry.
UniProt P30044: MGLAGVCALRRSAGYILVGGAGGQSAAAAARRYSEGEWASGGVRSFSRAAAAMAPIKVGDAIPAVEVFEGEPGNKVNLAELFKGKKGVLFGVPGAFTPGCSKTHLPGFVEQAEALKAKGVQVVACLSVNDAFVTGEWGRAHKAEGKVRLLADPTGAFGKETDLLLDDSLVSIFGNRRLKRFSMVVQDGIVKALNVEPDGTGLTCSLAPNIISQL
UniProt P38159: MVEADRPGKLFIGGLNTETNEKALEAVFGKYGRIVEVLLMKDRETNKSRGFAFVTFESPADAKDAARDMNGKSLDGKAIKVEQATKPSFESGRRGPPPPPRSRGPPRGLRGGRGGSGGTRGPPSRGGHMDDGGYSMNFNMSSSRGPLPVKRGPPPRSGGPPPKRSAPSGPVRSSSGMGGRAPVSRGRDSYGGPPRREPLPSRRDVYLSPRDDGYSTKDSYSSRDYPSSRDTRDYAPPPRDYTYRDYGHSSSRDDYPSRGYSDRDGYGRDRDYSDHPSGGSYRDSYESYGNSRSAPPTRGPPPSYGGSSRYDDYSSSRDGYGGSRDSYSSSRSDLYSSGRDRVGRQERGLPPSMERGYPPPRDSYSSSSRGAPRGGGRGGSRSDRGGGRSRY
UniProt P41223: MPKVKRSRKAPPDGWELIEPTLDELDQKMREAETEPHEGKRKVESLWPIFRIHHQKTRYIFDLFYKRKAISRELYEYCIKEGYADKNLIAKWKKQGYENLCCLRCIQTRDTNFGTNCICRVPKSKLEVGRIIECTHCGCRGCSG
UniProt P35520: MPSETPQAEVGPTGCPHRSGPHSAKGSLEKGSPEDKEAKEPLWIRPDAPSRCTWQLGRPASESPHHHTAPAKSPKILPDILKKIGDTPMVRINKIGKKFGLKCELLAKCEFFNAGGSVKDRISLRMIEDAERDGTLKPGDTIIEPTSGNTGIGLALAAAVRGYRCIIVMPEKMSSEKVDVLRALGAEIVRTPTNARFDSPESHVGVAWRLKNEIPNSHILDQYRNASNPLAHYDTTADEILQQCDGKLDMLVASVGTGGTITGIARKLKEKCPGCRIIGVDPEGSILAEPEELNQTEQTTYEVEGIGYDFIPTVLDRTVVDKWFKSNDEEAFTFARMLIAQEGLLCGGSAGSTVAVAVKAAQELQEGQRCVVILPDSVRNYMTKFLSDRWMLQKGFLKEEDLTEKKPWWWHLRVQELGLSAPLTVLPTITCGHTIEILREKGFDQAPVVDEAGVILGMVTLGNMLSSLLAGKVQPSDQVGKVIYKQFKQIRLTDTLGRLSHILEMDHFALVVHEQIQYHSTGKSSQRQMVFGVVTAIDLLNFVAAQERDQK
UniProt P33991: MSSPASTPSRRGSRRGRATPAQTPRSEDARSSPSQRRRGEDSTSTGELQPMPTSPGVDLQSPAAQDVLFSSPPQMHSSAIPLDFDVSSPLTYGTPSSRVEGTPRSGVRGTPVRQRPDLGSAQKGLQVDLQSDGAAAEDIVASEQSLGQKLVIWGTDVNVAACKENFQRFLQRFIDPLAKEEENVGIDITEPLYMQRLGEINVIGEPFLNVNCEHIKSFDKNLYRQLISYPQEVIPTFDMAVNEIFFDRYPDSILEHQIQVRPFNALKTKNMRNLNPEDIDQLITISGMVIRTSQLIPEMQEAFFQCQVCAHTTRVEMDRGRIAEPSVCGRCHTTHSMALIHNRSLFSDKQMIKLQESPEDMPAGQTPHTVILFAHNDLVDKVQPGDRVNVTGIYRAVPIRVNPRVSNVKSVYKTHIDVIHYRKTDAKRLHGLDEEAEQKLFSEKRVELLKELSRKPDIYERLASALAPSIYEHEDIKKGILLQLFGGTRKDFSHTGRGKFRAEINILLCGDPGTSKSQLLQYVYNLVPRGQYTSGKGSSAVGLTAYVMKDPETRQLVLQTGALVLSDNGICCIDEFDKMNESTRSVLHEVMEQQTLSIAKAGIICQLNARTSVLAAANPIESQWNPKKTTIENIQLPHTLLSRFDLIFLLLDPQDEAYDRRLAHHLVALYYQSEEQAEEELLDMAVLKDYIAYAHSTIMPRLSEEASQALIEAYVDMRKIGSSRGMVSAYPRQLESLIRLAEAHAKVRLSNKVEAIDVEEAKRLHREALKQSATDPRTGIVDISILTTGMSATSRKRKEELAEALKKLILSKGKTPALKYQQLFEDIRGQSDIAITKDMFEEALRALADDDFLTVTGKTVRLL
UniProt P40617: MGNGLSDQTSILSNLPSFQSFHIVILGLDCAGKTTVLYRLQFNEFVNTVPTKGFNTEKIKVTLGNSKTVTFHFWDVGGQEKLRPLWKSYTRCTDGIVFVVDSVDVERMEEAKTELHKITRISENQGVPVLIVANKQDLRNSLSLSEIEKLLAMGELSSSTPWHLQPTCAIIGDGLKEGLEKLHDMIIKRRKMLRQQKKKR
UniProt P46087: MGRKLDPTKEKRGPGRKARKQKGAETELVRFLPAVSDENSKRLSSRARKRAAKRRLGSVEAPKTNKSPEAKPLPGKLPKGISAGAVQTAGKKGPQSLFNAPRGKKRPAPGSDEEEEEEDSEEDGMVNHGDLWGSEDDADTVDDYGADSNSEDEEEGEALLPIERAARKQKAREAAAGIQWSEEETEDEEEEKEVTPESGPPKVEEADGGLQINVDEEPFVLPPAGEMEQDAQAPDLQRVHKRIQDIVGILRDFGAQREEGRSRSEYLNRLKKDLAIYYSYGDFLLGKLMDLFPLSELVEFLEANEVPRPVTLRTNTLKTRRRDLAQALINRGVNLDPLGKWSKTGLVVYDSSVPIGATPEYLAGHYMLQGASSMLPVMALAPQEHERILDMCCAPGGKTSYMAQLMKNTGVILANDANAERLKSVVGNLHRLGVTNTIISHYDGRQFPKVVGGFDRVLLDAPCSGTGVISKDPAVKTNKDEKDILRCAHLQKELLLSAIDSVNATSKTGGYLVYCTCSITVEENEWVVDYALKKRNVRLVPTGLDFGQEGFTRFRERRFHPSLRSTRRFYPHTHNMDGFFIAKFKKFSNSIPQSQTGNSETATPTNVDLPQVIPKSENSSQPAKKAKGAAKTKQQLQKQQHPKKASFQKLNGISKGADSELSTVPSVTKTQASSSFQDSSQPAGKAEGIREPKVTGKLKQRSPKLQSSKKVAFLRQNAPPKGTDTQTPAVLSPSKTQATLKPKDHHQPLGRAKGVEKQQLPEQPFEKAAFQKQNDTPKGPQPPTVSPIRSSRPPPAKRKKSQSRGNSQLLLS
UniProt P43304: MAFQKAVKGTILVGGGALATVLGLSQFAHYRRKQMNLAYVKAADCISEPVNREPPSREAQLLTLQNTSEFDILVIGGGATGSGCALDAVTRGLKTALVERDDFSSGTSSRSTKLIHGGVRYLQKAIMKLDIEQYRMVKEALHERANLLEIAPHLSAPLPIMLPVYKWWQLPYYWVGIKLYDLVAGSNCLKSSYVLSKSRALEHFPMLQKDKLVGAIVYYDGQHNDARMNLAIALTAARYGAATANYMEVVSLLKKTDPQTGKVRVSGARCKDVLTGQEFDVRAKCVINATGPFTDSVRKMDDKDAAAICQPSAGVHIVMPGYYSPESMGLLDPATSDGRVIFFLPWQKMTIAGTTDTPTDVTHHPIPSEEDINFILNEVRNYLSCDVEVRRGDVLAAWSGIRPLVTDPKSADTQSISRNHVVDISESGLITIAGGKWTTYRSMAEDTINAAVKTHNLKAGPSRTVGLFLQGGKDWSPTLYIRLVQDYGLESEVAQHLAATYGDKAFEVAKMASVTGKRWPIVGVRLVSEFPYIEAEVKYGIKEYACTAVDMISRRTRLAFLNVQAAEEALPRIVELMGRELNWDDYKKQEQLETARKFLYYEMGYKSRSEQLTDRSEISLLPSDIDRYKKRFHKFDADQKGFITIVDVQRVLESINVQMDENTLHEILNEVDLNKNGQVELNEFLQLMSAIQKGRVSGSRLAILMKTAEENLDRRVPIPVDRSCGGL
UniProt P40222: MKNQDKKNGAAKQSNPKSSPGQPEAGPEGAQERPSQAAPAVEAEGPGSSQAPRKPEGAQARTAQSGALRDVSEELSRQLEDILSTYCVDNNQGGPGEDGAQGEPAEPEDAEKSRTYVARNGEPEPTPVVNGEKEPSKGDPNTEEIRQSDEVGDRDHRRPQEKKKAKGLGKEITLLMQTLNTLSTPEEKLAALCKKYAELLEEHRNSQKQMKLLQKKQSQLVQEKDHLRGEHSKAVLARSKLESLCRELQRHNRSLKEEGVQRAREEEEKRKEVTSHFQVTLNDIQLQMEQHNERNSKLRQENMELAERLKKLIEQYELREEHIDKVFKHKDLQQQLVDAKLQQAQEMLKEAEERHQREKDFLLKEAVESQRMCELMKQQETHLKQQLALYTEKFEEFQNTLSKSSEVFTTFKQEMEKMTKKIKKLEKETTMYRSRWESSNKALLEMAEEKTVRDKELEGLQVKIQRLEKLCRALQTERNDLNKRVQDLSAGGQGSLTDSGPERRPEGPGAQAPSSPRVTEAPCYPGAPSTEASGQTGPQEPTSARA
UniProt P29474: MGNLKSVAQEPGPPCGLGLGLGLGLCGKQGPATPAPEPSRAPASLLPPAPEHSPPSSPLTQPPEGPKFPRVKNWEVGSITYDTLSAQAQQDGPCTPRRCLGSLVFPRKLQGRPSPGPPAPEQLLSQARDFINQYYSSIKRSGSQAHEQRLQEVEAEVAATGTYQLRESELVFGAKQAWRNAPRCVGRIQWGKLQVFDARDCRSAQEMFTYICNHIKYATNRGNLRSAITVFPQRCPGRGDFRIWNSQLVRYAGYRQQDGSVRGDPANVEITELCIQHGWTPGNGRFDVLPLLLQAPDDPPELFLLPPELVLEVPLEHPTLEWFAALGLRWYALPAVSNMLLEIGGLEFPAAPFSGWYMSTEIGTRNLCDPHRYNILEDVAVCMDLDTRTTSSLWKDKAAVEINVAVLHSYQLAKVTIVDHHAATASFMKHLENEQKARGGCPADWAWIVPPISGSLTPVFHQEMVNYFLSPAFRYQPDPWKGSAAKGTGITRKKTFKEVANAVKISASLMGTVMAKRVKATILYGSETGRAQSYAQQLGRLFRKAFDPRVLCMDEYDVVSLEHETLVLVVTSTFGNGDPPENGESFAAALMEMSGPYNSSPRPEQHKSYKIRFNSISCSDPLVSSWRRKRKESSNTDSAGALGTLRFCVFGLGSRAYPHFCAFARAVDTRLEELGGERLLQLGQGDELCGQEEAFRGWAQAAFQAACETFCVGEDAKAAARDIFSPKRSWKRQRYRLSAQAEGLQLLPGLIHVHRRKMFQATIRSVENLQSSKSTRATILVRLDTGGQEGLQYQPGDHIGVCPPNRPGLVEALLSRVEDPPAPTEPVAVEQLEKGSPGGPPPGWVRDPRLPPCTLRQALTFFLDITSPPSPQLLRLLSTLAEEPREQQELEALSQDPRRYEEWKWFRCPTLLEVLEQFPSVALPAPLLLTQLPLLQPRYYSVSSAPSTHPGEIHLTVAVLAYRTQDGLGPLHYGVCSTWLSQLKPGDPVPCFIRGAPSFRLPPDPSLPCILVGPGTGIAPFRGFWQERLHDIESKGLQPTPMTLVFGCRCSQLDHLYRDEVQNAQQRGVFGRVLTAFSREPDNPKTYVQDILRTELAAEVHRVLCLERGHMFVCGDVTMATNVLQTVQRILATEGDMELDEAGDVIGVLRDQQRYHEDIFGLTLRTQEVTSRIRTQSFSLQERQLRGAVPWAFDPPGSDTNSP
UniProt P35269, whole entry: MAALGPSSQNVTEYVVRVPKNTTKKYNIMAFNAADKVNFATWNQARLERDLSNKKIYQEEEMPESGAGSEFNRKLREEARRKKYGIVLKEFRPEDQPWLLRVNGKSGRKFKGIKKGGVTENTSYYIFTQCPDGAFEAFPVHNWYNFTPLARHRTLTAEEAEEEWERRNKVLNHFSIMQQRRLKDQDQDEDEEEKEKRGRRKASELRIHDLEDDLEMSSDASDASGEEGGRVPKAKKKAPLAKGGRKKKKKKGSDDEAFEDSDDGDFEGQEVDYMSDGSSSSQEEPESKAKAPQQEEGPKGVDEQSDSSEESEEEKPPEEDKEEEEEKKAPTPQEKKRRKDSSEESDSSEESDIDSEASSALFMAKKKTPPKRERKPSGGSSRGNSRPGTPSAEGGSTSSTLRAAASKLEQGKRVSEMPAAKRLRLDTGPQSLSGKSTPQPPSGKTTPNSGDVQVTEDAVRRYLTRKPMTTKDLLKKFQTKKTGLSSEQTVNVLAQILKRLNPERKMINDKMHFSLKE
UniProt P37268: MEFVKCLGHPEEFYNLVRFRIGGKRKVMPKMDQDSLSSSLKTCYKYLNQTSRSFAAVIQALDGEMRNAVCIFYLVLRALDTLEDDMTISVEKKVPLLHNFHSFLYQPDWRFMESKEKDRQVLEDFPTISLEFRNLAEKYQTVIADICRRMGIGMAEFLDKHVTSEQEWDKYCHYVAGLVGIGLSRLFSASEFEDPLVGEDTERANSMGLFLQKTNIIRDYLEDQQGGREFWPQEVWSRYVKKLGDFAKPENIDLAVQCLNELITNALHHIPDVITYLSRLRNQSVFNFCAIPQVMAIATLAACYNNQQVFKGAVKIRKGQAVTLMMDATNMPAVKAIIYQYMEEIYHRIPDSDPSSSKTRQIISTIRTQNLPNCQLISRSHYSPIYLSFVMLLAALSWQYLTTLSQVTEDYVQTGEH

Target	log2 fold change
MTHFR (peptide sequence: EEDVRPIFWASRPK, peptide start residue: 359) (UniProt P42898)	-0.0829
UniProt P42677 (peptide sequence: DLLHPSPEEEKRK, peptide start residue: 6)	0.18
PRPH (peptide sequence: ISVPVHSFASLNIK, peptide start residue: 407) (UniProt P41219)	0.0907
ADD1 (peptide sequence: QDFNMMEQKK, peptide start residue: 47) (UniProt P35611)	-0.737
RFC2 (peptide sequence: YRPVKLNEIVGNEDTVSR, peptide start residue: 42) (UniProt P35250)	-0.35
PRDX5 (peptide sequence: KGVLFGVPGAFTPGCSK, peptide start residue: 86) (UniProt P30044)	0.128
RBMX (peptide sequence: YDDYSSSR, peptide start residue: 310) (UniProt P38159)	-0.189
UniProt P41223 (peptide sequence: QGYENLCCLRCIQTR, peptide start residue: 95)	-0.214
MATR3 (peptide sequence: EDAMAMVDHCLKK, peptide start residue: 543) (UniProt P43243)	0.23
CBS (peptide sequence: GFLKEEDLTEK, peptide start residue: 395) (UniProt P35520)	0.176
CASP3 (peptide sequence: SGTDVDAANLR, peptide start residue: 65) (UniProt P42574)	0.389
MCM4 (peptide sequence: FRAEINILLCGDPGTSK, peptide start residue: 500) (UniProt P33991)	-0.21
ARL4A (peptide sequence: NSLSLSEIEK, peptide start residue: 140) (UniProt P40617)	0.331
TNFRSF8 (peptide sequence: ADTVIVGTVK, peptide start residue: 522) (UniProt P28908)	-0.275
GRN (peptide sequence: CITPTGTHPLAK, peptide start residue: 178) (UniProt P28799)	-0.969
RANGAP1 (peptide sequence: SLKLNTAEDAK, peptide start residue: 29) (UniProt P46060)	0.686
NCAPD3 (peptide sequence: GSVMPSVIR, peptide start residue: 912) (UniProt P42695)	0.548
STAT5A (peptide sequence: GAESVTEEK, peptide start residue: 431) (UniProt P42229)	0.377
USP5 (peptide sequence: KYVDKLEK, peptide start residue: 353) (UniProt P45974)	0.361
NOP2 (peptide sequence: ILDMCCAPGGK, peptide start residue: 388) (UniProt P46087)	0.649

Target	log2 fold change
GPD2 (peptide sequence: VIFFLPWQK, peptide start residue: 340) (UniProt P43304)	-0.139
MAGEA8 (peptide sequence: AEMLESVIK, peptide start residue: 126) (UniProt P43361)	0.356
LRPPRC (peptide sequence: SCGSLLPELK, peptide start residue: 129) (UniProt P42704)	0.146
ADSL (peptide sequence: KVDIEVLSVLASLGASVHK, peptide start residue: 246) (UniProt P30566)	-0.282
SHMT2 (peptide sequence: IMGLDLPDGGHLTHGYMSDVKR, peptide start residue: 161) (UniProt P34897)	-0.392
PKLR (peptide sequence: VGDLVIVVTGWRPGSGYTNIMR, peptide start residue: 548) (UniProt P30613)	-0.517
TXLNA (peptide sequence: LIEQYELREEHIDK, peptide start residue: 312) (UniProt P40222)	0.689
DUT (peptide sequence: ARPAEVGGMQLR, peptide start residue: 104) (UniProt P33316)	-0.198
MARCKS (peptide sequence: GEAAAERPGEAAVASSPSK, peptide start residue: 12) (UniProt P29966)	-0.0969
ARID4A (peptide sequence: ISFLQEK, peptide start residue: 1186) (UniProt P29374)	0.399
NOS3 (peptide sequence: PGDPVPCFIR, peptide start residue: 985) (UniProt P29474)	0.392
GTF2F1 (peptide sequence: MINDKMHFSLKE, peptide start residue: 506) (UniProt P35269)	-0.17
PCGF2 (peptide sequence: SDKTLQDIVYK, peptide start residue: 71) (UniProt P35227)	-1.17
UniProt P35713 (peptide sequence: RPMNAFMVWAK, peptide start residue: 623)	-0.15
ECHS1 (peptide sequence: NNTVGLIQLNRPK, peptide start residue: 44) (UniProt P30084)	0.3
RRM2 (peptide sequence: EIIINAVR, peptide start residue: 291) (UniProt P31350)	-0.435
SERPINB6 (peptide sequence: LVLVNAVYFR, peptide start residue: 161) (UniProt P35237)	0.467
FDFT1 (peptide sequence: CLGHPEEFYNLVR, peptide start residue: 6) (UniProt P37268)	0.0462
HSPA4 (peptide sequence: QDLPALEEKPR, peptide start residue: 186) (UniProt P34932)	-0.829

A few values from the entries so far:
For log2 fold change, USP5 (peptide sequence: KYVDKLEK, peptide start residue: 353) (UniProt P45974) has the entry 0.361
For log2 fold change, NOP2 (peptide sequence: ILDMCCAPGGK, peptide start residue: 388) (UniProt P46087) has the entry 0.649

— the supplement of paper PMC12819154, “High-throughput peptide-centric local stability assay extends protein–ligand identification to membrane proteins, tissues and bacteria” (Nature Structural & Molecular Biology, 2025)
